Structures were worked out from names or drawings and are uncertain.
Target: TFEB (Homo sapiens, UniProt P19484)
Experiment: Tfeb-Translocation Assay HEK-293T-oEX-Tfeb-GFP Cell Line
Details: read-out: TFEB Translocation EC50; HEK-293T-oEX-TFEB-GFP cells; translocation positive cells ratio
Procedure: Tfeb-Translocation Assay HEK-293T-oEX-Tfeb-GFP Cell Line
• 1). Added 2×10^6 cell into a T75 flask with 15 mL DiVEM medium (with 10% FBS, 1% PS, 1×GLUTAMAX, 1×MEM NEAA, 1×HEPES Buffer Solution and 5 ug/mL blasticidin). • 2). Culturing for 48-72 hours. Cells in logarithmic growth phase were taken for experiment. The other cells were passaged as described in step 1. • 3). Seeded 1×10^4 cells/30 μL/well into 384-well plate (BD 356663). Cultured overnight at 37° C. & 5% CO2 incubator. • 4). Note: Used cells <10 passage
• 1). Compounds were firstly diluted by DMSO to the stock needed (10 mM), and aliquoted and stored at −20° C. • 2). Took one aliquot each time and made 3-fold or 2-fold dilutions as indicated, total 10 doses plus one DMSO control well in the source plate. • 3). Added 150 or 90 nL/well compounds solution to the assay plate by ECHO and incubated for 6 or 18 hours respectively at 37° C. & 5% CO2 incubator.
• 1). Added 30 uL 8% PFA into the wells and incubated 20 min at room temperature. • 2). Discarded the medium, washed the wells twice with DPBS to eliminate foam and bubbles in the well.
• 1). […]
• 1). […] Calculated the EGFP average intensity inside the Nucleus region. • 3). […] Selected the Surrounding region of the nucleus and calculated the EGFP mean intensity of the region • 5). […]

By UniProt entry, the sequences of proteins in these tests, tags left out.
UniProt P19484, whole entry: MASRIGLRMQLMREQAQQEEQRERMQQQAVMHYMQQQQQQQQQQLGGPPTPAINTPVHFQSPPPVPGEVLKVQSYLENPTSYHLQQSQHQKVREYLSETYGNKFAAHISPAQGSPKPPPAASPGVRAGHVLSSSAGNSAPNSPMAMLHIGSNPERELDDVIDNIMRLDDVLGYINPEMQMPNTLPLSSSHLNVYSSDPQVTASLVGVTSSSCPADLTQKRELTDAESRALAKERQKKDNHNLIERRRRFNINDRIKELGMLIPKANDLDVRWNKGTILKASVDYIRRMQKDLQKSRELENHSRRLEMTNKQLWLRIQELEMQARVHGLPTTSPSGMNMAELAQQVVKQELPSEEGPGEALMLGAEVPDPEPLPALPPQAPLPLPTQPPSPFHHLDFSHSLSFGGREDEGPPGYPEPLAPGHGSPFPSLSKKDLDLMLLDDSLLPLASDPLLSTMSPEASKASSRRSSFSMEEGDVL

EC50: > 10 µM
SMILES: O=C(NCc1ccccn1)c1cnc2ccn(Cc3ccccc3)c(=O)c2c1

Reference: patent US20250281483A1, “TRANSCRIPTION FACTOR EB ACTIVATORS AND USES THEREOF” (Astellas Engineered Small Molecules US, Incorporated, priority 2022, published 2025)
